Results reported in PubChem BioAssay (EPA / NIEHS).
Inconclusive results, whose numbers are uncertain, are shown with a selection of clear calls. For some of these results: Where the call is inconclusive, the potency comes from a doubtful curve fit. Activity calls are given as the source filed them. The calls were made as follows: active = hit-call score of the fitted dose curve at least 0.9, where 1 is the maximum; inconclusive = response in the unintended direction; inactive = score below 0.9.

Amino acid sequences for entries named in this document (tags omitted). A change or cut given only in a name is not applied to a line headed by its entry.
UniProt Q01959, whole entry, looked up: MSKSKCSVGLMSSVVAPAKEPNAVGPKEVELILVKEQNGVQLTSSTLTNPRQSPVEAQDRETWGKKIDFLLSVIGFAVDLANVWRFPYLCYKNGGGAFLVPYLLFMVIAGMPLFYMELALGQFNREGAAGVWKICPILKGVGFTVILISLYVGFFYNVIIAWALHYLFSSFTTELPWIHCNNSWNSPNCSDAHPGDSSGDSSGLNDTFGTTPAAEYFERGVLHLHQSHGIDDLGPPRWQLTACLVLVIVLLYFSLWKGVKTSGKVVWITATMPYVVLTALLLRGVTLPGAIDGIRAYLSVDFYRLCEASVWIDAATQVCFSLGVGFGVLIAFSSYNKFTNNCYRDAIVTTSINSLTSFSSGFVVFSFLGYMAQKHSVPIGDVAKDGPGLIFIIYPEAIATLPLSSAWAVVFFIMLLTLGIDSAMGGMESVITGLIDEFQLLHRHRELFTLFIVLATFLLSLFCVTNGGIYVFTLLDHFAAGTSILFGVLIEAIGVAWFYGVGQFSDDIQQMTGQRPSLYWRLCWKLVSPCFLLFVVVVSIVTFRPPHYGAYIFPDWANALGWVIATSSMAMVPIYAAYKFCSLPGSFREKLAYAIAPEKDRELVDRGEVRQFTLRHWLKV
UniProt P23975, whole entry, looked up: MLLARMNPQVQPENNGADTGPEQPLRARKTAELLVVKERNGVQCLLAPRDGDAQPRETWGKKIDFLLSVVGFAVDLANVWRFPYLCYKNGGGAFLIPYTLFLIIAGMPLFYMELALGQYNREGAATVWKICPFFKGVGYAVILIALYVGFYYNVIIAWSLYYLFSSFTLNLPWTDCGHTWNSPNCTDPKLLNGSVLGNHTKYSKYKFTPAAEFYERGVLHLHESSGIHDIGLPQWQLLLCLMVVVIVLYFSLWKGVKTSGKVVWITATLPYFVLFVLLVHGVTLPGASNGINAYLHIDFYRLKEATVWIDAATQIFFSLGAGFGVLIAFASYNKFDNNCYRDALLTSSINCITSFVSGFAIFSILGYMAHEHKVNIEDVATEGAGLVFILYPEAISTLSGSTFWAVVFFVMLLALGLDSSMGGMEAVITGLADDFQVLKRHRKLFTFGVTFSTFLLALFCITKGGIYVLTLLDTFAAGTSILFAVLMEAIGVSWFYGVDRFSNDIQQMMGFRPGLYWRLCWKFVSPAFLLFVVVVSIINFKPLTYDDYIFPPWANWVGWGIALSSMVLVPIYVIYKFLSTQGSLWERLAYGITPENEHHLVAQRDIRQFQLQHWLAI
UniProt Q92731, whole entry, looked up: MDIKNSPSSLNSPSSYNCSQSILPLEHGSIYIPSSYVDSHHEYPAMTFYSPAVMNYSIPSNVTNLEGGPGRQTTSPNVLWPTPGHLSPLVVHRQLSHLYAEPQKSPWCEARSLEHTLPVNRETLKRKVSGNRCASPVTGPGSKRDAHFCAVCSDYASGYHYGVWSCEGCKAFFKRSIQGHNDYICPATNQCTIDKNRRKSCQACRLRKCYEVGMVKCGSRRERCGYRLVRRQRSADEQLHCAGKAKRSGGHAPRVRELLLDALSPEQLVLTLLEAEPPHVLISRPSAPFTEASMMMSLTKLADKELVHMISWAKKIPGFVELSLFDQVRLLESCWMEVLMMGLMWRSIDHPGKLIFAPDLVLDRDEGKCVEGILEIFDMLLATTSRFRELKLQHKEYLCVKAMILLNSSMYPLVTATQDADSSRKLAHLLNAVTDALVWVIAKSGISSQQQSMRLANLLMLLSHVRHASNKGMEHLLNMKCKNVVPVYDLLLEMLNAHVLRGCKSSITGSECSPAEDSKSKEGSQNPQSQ
UniProt P10276, whole entry, looked up: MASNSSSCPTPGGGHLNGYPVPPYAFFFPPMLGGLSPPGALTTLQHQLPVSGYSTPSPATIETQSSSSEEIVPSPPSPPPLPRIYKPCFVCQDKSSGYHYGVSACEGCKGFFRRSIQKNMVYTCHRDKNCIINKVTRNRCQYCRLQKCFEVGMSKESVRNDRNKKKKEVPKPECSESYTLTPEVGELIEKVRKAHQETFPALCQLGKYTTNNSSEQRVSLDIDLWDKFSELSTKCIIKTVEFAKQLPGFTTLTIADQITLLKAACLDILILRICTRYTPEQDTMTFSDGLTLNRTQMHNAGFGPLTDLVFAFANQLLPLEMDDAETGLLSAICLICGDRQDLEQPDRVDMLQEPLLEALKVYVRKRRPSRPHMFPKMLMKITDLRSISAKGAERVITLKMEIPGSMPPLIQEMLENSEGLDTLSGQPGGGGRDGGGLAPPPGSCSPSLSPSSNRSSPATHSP
UniProt P06401: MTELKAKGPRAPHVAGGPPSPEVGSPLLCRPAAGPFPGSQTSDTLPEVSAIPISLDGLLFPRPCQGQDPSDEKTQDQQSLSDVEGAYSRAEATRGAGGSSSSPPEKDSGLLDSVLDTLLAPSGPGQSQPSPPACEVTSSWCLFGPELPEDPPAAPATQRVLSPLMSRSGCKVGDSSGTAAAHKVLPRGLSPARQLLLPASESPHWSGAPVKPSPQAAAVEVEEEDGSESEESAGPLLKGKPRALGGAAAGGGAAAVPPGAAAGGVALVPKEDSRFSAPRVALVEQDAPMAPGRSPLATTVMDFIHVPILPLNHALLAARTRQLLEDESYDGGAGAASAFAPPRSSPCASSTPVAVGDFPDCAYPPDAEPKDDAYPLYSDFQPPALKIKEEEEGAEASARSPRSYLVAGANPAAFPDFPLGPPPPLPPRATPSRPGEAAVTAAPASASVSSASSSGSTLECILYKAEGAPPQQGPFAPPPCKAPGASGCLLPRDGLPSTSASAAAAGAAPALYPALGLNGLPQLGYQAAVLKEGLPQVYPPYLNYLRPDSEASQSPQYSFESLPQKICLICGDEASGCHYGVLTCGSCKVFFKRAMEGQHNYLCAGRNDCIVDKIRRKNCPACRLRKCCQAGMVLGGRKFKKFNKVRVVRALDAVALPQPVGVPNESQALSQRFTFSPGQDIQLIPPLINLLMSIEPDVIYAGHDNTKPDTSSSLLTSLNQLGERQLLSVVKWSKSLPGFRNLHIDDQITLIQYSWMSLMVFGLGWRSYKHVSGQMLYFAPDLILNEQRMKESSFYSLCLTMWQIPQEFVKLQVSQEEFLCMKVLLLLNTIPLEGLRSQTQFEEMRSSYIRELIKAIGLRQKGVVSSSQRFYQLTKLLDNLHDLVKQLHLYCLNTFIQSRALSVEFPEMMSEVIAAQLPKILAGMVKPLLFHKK
UniProt O75469: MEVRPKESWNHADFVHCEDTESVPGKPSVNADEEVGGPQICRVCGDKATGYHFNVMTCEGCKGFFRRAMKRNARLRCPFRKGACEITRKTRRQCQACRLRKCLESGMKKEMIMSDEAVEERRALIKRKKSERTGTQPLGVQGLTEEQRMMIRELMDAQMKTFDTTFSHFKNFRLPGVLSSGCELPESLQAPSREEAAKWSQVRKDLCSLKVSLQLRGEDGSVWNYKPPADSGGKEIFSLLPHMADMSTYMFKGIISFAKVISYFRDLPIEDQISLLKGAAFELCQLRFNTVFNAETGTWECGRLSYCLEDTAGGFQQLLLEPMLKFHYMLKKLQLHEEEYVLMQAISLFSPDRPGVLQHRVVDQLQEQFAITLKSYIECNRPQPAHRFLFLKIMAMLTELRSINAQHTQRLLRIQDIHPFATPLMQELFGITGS
UniProt P03372, whole entry, looked up: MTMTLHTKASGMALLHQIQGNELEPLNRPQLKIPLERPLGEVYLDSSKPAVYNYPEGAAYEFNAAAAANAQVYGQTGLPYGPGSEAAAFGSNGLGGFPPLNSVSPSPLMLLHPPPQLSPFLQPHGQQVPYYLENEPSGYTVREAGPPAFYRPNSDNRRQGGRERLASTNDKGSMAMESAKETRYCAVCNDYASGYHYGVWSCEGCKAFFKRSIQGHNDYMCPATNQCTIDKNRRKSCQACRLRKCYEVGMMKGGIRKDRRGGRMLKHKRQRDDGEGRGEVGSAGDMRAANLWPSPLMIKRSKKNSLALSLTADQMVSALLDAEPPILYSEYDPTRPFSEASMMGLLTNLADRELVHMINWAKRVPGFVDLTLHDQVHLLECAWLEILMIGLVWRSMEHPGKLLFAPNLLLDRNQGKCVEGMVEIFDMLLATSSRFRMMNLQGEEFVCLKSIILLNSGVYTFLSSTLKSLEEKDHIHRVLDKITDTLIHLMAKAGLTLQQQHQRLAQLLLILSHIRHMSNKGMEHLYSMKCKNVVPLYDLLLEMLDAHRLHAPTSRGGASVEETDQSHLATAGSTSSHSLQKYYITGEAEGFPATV
UniProt P15207: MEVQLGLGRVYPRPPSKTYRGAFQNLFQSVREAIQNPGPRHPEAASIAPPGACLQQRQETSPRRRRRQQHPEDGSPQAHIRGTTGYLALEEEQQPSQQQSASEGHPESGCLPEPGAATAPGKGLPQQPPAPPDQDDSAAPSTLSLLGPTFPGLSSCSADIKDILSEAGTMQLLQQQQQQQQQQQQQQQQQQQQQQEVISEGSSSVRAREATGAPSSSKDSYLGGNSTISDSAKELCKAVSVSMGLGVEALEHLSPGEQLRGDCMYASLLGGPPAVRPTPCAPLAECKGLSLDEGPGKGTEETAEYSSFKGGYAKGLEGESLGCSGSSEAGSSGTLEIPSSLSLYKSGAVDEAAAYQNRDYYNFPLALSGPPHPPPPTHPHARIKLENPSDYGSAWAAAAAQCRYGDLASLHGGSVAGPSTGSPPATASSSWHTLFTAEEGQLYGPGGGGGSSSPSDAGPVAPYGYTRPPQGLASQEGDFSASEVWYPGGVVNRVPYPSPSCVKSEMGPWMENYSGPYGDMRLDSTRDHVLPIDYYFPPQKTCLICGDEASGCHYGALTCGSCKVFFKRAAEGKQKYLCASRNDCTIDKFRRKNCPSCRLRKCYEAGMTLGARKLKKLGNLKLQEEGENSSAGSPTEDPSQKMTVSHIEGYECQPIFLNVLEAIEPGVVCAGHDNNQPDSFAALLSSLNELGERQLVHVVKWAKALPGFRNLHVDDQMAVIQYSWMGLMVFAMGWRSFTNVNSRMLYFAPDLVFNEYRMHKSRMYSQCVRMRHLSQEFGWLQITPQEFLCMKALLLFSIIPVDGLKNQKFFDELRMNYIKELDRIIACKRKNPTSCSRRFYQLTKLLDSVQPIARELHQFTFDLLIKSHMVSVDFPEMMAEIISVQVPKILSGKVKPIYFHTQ
UniProt P04150: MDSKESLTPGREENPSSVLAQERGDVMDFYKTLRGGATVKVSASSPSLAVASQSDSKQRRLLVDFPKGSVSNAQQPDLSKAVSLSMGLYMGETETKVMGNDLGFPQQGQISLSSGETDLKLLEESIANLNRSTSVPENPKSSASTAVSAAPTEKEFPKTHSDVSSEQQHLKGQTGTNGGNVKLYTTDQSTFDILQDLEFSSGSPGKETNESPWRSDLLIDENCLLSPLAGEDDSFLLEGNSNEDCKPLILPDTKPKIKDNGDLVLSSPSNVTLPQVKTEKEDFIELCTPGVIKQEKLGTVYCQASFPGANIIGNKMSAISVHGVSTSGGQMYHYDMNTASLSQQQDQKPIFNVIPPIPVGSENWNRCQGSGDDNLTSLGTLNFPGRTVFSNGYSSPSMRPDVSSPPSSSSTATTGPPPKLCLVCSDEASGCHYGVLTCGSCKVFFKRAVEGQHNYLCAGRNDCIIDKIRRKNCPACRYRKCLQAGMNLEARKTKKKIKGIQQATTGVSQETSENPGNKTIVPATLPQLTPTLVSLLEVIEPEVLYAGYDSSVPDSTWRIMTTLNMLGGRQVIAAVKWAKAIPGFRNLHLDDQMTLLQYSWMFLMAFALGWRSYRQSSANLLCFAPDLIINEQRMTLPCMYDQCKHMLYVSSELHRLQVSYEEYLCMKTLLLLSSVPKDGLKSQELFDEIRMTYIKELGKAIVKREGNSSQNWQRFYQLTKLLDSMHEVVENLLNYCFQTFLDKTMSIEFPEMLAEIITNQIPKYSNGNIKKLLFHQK
UniProt Q07869: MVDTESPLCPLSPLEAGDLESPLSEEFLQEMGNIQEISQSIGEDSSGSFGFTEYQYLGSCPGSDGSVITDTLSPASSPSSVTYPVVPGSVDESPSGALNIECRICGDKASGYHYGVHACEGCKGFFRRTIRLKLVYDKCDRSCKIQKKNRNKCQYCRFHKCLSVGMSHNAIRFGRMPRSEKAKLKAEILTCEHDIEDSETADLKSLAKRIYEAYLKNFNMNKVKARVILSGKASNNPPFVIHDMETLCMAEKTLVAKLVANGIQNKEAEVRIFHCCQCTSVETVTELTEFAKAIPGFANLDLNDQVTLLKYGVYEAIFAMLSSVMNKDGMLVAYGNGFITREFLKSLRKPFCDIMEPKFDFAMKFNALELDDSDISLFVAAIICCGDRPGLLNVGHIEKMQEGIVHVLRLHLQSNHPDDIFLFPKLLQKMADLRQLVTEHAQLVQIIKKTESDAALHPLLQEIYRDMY

Experiments:
[1] = target: human Thyroid Receptor Alpha (TRa), THRA (gene 7067) (UniProt P10827); assay: NVS_NR_hTRa_Antagonist: NovaScreen (NVS) Nuclear Receptor Binding Assay for human Thyroid Receptor Alpha Antagonism (TRa) (AID 2283362);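 also: activity is loss of signal relative to DMSO baseline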
How it was run: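 Cell-free AlphaLISA chemiluminescent binding read 1 h after dosing, antagonist mode; signal loss versus DMSO baseline. Primary screen in duplicate at 25 uM, then concentration series for actives.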

[2] = target: human Adenosine Transporter (Adot), SLC29A1 (gene 2030) (UniProt Q99808); assay: NVS_TR_hAdoT: NovaScreen (NVS) Transporter Assay for human Adenosine Transporter (Adot) (AID 2283368)
How it was run: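 Binding displacement on U937 extracted protein, read 1 h post-dose by filtration and scintillation counting. Primary duplicate test at 25 uM, then singleton concentration series with 50 uM top; DMSO baseline.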

[3] = system: guinea pig Dopamine Transporter (DAT), gene 100714898; assay: NVS_TR_gDAT: NovaScreen (NVS) Transporter Assay for guinea pig Dopamine Transporter (DAT) (AID 2283369);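 also: active compounds lower bound radioligand signal relative to DMSO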
How it was run: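 Guinea pig striatal membranes, cell-free radioligand binding with filter-based scintillation counting, read 2 h after dosing. Loss of signal versus DMSO baseline; single-concentration primary (25 uM) then concentration-response up to 50 uM.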

[4] = target: human Serotonin Transporter (SERT), SLC6A4 (gene 6532) (UniProt P31645); assay: NVS_TR_hSERT: NovaScreen (NVS) Transporter Assay for human Serotonin Transporter (SERT) (AID 2283372)
How it was run: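 Human platelet membrane preparation; displacement of radioligand from serotonin transporter measured after 1 h by filtration and scintillation counting. Single 25 uM duplicate screen, then concentration series for actives, with DMSO as negative baseline.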

[5] = system: rat Norepinephrine Transporter (NET), gene 83511; assay: NVS_TR_rNET: NovaScreen (NVS) Transporter Assay for rat Norepinephrine Transporter (NET) (AID 2283373)
How it was run: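 Competitive radioligand displacement at the rat NET using forebrain membrane preparations, 1 h incubation, filter-based scintillation readout. Primary testing in duplicate at a single 25 uM concentration; confirmed actives retested across concentrations.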

[6] = target: rat Serotonin Transporter (SERT), Slc6a4 (gene 25553) (UniProt P31652); assay: NVS_TR_rSERT: NovaScreen (NVS) Transporter Assay for rat Serotonin Transporter (SERT) (AID 2283375)
How it was run: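 Rat forebrain membranes; radioligand displacement at SERT read by filter-based scintillation counting, 1 h after dosing. Screened in duplicate at 25 uM, actives then run in concentration series; loss of signal versus DMSO baseline.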

[7] = target: human Dopamine Transporter (DAT), SLC6A3 (gene 6531) (UniProt Q01959); assay: NVS_TR_hDAT: NovaScreen (NVS) Transporter Assay for human Dopamine Transporter (DAT) (AID 2283374);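 also: activity means loss of bound radioligand signal relative to DMSO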
How it was run: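 Extracted human SLC6A3 protein incubated 1 h with radioligand and test chemical; bound fraction separated on filters and counted. Single 25 uM duplicate screen preceded concentration-response follow-up; positive and negative controls on every plate.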

[8] = target: Norway rat Vesicular Monoamine Transporter (VMAT2), neurotransmitter transporter, Slc18a2 (gene 25549) (UniProt Q01827); assay: NVS_TR_rVMAT2: NovaScreen (NVS) Transporter Assay for Norway rat Vesicular Monoamine Transporter (VMAT2), neurotransmitter transporter (AID 2283376);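 also: actives lower the bound radioligand signal below the DMSO level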
How it was run: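 Binding endpoint from rat forebrain tissue, cell-free; 1 h incubation; filtered radioligand counted; 25 uM duplicate primary then dose series; DMSO negative control.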

[9] = target: human Norepinephrine Transporter (NET), SLC6A2 (gene 6530) (UniProt P23975); assay: NVS_TR_hNET: NovaScreen (NVS) Transporter Assay for human Norepinephrine Transporter (NET) (AID 2283377);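 also: cell-free membrane protein extracted from CHO cells expressing human NET; displacement of radioligand from human NET seen as loss of scintillation signal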
How it was run: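 In this cell-free binding screen, chemicals at 25 uM (duplicate) compete with a radioligand for CHO-derived human NET over 1 hour, with filter-based radiodetection.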

[10] = target: Estrogen receptor beta (Homo sapiens) (UniProt Q92731); assay: OT_ER_ERbERb_0480: Odyssey Thera (OT) 8-hour HEK293T Protein-Complementation Assay for Estrogen Receptor-beta/-beta Homodimer (AID 2283357);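 also: active means signal gain over DMSO baseline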
How it was run: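 Fluorescence gain from complemented reporter fragments on ER-beta LBD homodimer in HEK293T was quantified against DMSO controls after 8 h treatment, fixation in 4% formaldehyde and Draq5 staining.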

[11] = target: Retinoic acid receptor alpha (Homo sapiens) (UniProt P10276); assay: NVS_NR_hRAR_Antagonist: NovaScreen (NVS) Nuclear Receptor Binding Assay for human Retinoic Acid Alpha Receptor Antagonism (RAR) (AID 2283358)
How it was run: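 Chemicals were first tested in duplicate at 25 uM, then actives in concentration series, in a cell-free TR-FRET antagonist binding format. Measurements were taken 2 hours after dosing and loss of signal was evaluated against DMSO controls.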

PGR (gene 5241) = PGR (gene 5241) (UniProt P06401); assay: NVS_NR_hPR: NovaScreen (NVS) Nuclear Receptor Binding Assay for human Progestron Receptor (PR) (AID 2283360);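 also: active means loss of bound radioligand signal versus DMSO baseline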
How it was run: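 Cell-free radioligand binding using receptor protein extracted from T47D cells, read by scintillation counting 18 hours after dosing. Loss of signal relative to DMSO baseline indicates displacement; primary screen single concentration 25 uM in duplicate, actives followed in concentration series.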

[12] = target: Nuclear receptor subfamily 1 group I member 2 (Homo sapiens) (UniProt O75469); assay: NVS_NR_hPXR: NovaScreen (NVS) Nuclear Receptor Binding Assay for human Pregnane X Receptor (PXR) (AID 2283365);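 also: a drop in FRET signal versus DMSO baseline means the compound binds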
How it was run: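 Cell-free TR-FRET binding assay with extracted human PXR protein, read 2 h after dosing. Primary screen run in duplicate at 25 uM, actives followed in concentration series; loss of signal fitted against DMSO baseline.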

[13] = target: Estrogen receptor (Homo sapiens) + Estrogen receptor beta (Homo sapiens) (UniProt P03372+Q92731); assay: OT_ER_ERaERb_1440: Odyssey Thera (OT) 24-hour HEK293T Protein-Complementation Assay for Estrogen Receptor-alpha/-beta Homodimer (AID 2283356);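 also: heteromer of ER alpha and ER beta binding domains; hits raise reporter fluorescence and both agonists and antagonists give an increase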
How it was run: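 HEK293T stably expressing a PCA of ER alpha LBD (aa 310-547) and ER beta LBD (aa 263-489). After 24 h compound exposure, mean fluorescence intensity in nucleus (agonists) or nucleus and cytoplasm (antagonists) measured by laser scanning cytometry versus vehicle.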

[14] = target: rat Androgen Receptor (AR), Ar (gene 24208) (UniProt P15207); assay: NVS_NR_rAR: NovaScreen (NVS) Nuclear Receptor Binding Assay for rat Androgen Receptor (AR) (AID 2283366)
How it was run: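 Actives from a duplicate single-concentration (25 uM) primary run went on to concentration series. Displacement of radioligand was counted by filtration and scintillation, 18 h post-dose, using prostate extracts from testosterone-pretreated rats, with DMSO as baseline.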

[15] = target: Peroxisome proliferator-activated receptor gamma (Homo sapiens) (UniProt P37231); assay: NVS_NR_hPPARg: NovaScreen (NVS) Nuclear Receptor Binding Assay for human Peroxisome Proliferator-activated Receptor gamma (PPARg) (AID 2283370)
How it was run: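 Cell-free fluorescence polarization binding to human PPARg protein, read 2 h after dosing. Primary screen in duplicate at 25 uM, actives followed in concentration series; loss of signal relative to DMSO scored.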

[16] = target: Glucocorticoid receptor (Homo sapiens) (UniProt P04150); assay: NVS_NR_hGR: NovaScreen (NVS) Nuclear Receptor Binding Assay for human Glucocorticoid Receptor (GR) (AID 2283363)
How it was run: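 Single-readout cell-free binding: radioligand plus extracted receptor, 16-hour dosing, filter radiodetection; 25 uM duplicate primary, concentration series secondary.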

[17] = target: human Peroxisome Proliferator-activated Receptor alpha (PPARa), PPARA (gene 5465) (UniProt Q07869); assay: NVS_NR_hPPARa: NovaScreen (NVS) Nuclear Receptor Binding Assay for human Peroxisome Proliferator-activated Receptor alpha (PPARa) (AID 2283359);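 also: activity means loss of TR-FRET signal versus DMSO baseline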
How it was run: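 One-hour incubation, cell-free extracted protein, TR-FRET binding readout; signal loss vs DMSO scored. Screen: 25 uM duplicates, confirmatory dose series for actives.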

SMILES: O=C1c2ccccc2C(=O)N1SC(Cl)(Cl)Cl
- AC50 [1]: inconclusive: 187 nM

SMILES: Oc1ccc(C(c2ccc(O)cc2)(C(F)(F)F)C(F)(F)F)cc1
- AC50 [2]: active: 25 µM

SMILES: CCOP(=S)(OCC)SCSP(=S)(OCC)OCC
- AC50 [3]: inconclusive: 67 nM

SMILES: CCCCCCCCCC[N+](C)(C)CCCCCCCCCC
- AC50 [4]: active: 13.4 µM

SMILES: CC(C)N(C(=O)COc1nnc(C(F)(F)F)s1)c1ccc(F)cc1
- AC50 [4]: active: 7.81 µM

SMILES: CC#Cc1cc(C)nc(Nc2ccccc2)n1
- AC50 [5]: inconclusive: 0.069 µM
- AC50 [6]: inconclusive: 114 nM

SMILES: CCC(C)(c1ccc(O)cc1)c1ccc(O)cc1
- outcome [5]: inactive

SMILES: O=[N+]([O-])c1cc(C(F)(F)F)c(Cl)c([N+](=O)[O-])c1Nc1ncc(C(F)(F)F)cc1Cl
- outcome [7]: inactive

SMILES: Cc1cc(C)nc(Nc2ccccc2)n1
- outcome [8]: inactive

SMILES: Cn1c(-c2ccccc2)cc(-c2ccccc2)[n+]1C
- AC50 [9]: active: 2.75 µM

SMILES: O=c1oc2ccccc2c(O)c1C(CC(O)c1ccc(-c2ccc(Br)cc2)cc1)c1ccccc1 (stereo not drawn)
- AC50 [9]: inconclusive: 34.5 µM

SMILES: O=C(NC(=O)c1c(F)cccc1F)Nc1ccc(Cl)cc1
- AC50 [10]: inconclusive: 50 µM

SMILES: O=C(O)COc1ccc(Cl)cc1
- AC50 [10]: inconclusive: 50 µM

SMILES: CCNc1nc(Cl)nc(NCC)n1
- outcome [10]: inactive
- AC50 [11]: inconclusive: 0.186 µM
- AC50 (PGR (gene 5241)): inconclusive: 184 nM
- AC50 [1]: inconclusive: 6930 nM

SMILES: CC12CC1(C)C(=O)N(c1cc(Cl)cc(Cl)c1)C2=O (stereo not drawn)
- AC50 [10]: inconclusive: 0.5 µM
- outcome [10]: inactive
- AC50 [12]: inconclusive: 0.142 µM
- outcome [12]: inactive

SMILES: CCN(CCO)CCO
- AC50 [10]: inconclusive: 50 µM

SMILES: Cc1cc2c3c(c1)C(c1ccccc1)=N[C@@H](NC(=O)c1ccncc1)C(=O)N3CC2
- AC50 [10]: inconclusive: 50 µM
- AC50 [11]: inconclusive: 0.761 µM

SMILES: N#Cc1cccnc1
- AC50 [13]: inconclusive: 50 µM
- AC50 [12]: inconclusive: 25 µM

SMILES: C#CCN1C(=O)COc2cc(F)c(N3C(=O)C4=C(CCCC4)C3=O)cc21
- AC50 [10]: inconclusive: 50 µM

SMILES: CCCCCCCCOC(=O)c1ccccc1C(=O)OCCCCCCCC
- outcome [10]: inactive

SMILES: CO/C=C(/C(=O)OC)c1ccccc1Oc1cc(Oc2ccccc2C#N)ncn1
- AC50 [10]: inconclusive: 53 µM
- AC50 [11]: inconclusive: 25 µM
- outcome [1]: inactive
- AC50 [14]: inconclusive: 25 µM
- outcome [2]: inactive
- AC50 [6]: inconclusive: 128 nM

SMILES: Cc1ccccc1C(=O)Nc1cccc(OC(C)C)c1
- AC50 [10]: inconclusive: 50 µM

SMILES: O=c1ssc(Cl)c1Cl
- AC50 [13]: inconclusive: 92.5 µM
- AC50 [12]: inconclusive: 25 µM

SMILES: Clc1ccc(Cl)cc1
- AC50 [10]: inconclusive: 50 µM

SMILES: CCC1(c2ccccc2)C(=O)N=C(O)NC1=O (stereo not drawn)
- AC50 [13]: inconclusive: 50 µM
- AC50 [15]: inconclusive: 25 µM
- AC50 [8]: inconclusive: 6.06 µM

SMILES: CCCSP(=O)(OCC)SCCC
- AC50 [10]: inconclusive: 51.5 µM
- AC50 [11]: inconclusive: 25 µM
- AC50 [1]: inconclusive: 106 nM
- outcome [16]: inactive
- outcome [15]: inactive

SMILES: CCOS(=O)(=O)OCC
- AC50 [10]: inconclusive: 50 µM
- AC50 [17]: inconclusive: 25 µM
- outcome [15]: inactive

SMILES: CC(C)N(C(=O)CCl)c1ccccc1
- outcome [10]: inactive

SMILES: ClC1=C(Cl)C2(Cl)C3C(Cl)C=CC3C1(Cl)C2(Cl)Cl (stereo not drawn)
- outcome [10]: inactive

SMILES: CN(C)NC(=O)CCC(=O)O
- AC50 [10]: active: 50 µM

SMILES: Nc1c(Cl)c(Cl)nc(C(=O)O)c1Cl
- outcome [10]: inactive

SMILES: COC(=O)C=C(C)OP(=O)(OC)OC
- AC50 [10]: inconclusive: 50 µM

SMILES: O=C(O)CCCOc1ccc(Cl)cc1Cl
- outcome [10]: inactive
- AC50 [11]: inconclusive: 25 µM
- AC50 [1]: inconclusive: 4960 nM
- outcome [14]: inactive
- outcome [15]: inactive
- AC50 [5]: inconclusive: 25 µM

SMILES: FC(F)(F)c1ccc(Cl)cc1
- outcome [10]: inactive
- AC50 [17]: inconclusive: 25 µM
- AC50 [12]: inconclusive: 7.17 µM

SMILES: O=[N+]([O-])c1ccc(O)c([N+](=O)[O-])c1
- AC50 [10]: inconclusive: 50 µM

SMILES: CNC(=O)N(C)c1nnc(C(C)(C)C)s1
- AC50 [10]: inconclusive: 50 µM

SMILES: [As]#[In]
- AC50 [10]: inconclusive: 50 µM

SMILES: O=CNC(N1CCN(C(NC=O)C(Cl)(Cl)Cl)CC1)C(Cl)(Cl)Cl (stereo not drawn)
- AC50 [10]: inconclusive: 50 µM

SMILES: COP(=O)(OC)OC(Br)C(Cl)(Cl)Br (stereo not drawn)
- AC50 [10]: inconclusive: 83.3 µM

SMILES: CNC(=O)O/N=C/C(C)(C)S(C)(=O)=O
- outcome [10]: inactive

SMILES: C=CCOC(=O)C(C)(C)OC(=O)c1cc(-n2c(=O)cc(C(F)(F)F)n(C)c2=O)ccc1Cl
- outcome [13]: inactive
- AC50 [5]: inconclusive: 25 µM

SMILES: C1CC2OC2CC1C1CO1 (stereo not drawn)
- outcome [10]: inactive
